According to paper PMC11490714:
These are yes or no findings as the source states them, for the method shown. Binding seen in cells or lysates may run through a third protein. Some results given as binding are weak or reduced against the parent protein; the word gives no strength. Tags and fused reporters may be left off the sequences shown. Each block holds one binder with its values, some of them ahead of it.

Columns and labels:
FLAG-USP39 (human) = molecular target: T1, FLAG-USP39 (human) (UniProt Q53GS9); test: co-IP; both partners overexpressed (FLAG- and HA-tagged) in HEK293T for 48 h, modified radioimmunoprecipitation assay buffer, anti-FLAG affinity gel, Western blot
T1 sequence: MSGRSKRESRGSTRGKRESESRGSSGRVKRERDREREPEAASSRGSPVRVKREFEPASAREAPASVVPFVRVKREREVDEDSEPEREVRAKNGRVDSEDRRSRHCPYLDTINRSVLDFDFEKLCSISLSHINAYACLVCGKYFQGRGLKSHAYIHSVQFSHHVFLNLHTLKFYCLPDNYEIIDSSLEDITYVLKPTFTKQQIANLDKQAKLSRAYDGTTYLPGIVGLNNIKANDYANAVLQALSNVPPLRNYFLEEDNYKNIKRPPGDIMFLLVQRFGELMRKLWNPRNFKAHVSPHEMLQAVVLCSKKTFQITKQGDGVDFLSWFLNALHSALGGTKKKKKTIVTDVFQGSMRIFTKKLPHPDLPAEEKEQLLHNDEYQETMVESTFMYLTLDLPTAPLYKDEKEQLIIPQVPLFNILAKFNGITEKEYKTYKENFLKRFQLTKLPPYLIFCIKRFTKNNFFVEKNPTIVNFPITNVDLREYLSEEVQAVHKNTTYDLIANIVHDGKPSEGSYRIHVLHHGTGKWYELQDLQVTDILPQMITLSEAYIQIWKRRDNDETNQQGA

FLAG-RBM39 (human) = molecular target: T2, FLAG-RBM39 (human) (UniProt Q14498); test: as above
T2 sequence: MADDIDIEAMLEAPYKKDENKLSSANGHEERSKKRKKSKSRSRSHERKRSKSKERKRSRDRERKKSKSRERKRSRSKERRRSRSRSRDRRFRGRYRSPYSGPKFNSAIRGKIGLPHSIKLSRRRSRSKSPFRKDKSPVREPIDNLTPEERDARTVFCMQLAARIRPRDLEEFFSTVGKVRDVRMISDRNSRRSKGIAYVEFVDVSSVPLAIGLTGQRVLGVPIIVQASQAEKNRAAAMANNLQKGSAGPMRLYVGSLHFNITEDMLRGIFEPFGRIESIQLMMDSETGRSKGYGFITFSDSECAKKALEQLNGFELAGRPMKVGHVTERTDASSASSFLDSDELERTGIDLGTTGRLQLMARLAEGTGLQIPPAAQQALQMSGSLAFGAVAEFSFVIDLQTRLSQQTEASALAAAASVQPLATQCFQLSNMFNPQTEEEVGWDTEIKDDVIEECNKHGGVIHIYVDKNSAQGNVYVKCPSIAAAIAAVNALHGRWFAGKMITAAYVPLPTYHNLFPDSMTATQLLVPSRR

HA-RBM39 (human) = molecular target: T3, HA-RBM39 (human) (UniProt Q14498); test: co-IP; FLAG-USP39 or HA-RBM39 expressed alone in HEK293T for 48 h; anti-FLAG affinity gel or anti-HA magnetic beads; endogenous partner detected by Western blot
T3 sequence: T2 sequence

binding (FLAG-USP39 (human)): binds
B1: HA-RBM39 N-terminal domain (aa 1-147) (domain or fragment, UniProt Q14498 1-147)
chain: MADDIDIEAMLEAPYKKDENKLSSANGHEERSKKRKKSKSRSRSHERKRSKSKERKRSRDRERKKSKSRERKRSRSKERRRSRSRSRDRRFRGRYRSPYSGPKFNSAIRGKIGLPHSIKLSRRRSRSKSPFRKDKSPVREPIDNLTP

binding (FLAG-RBM39 (human)): binds
B2: HA-USP39 (enzyme, UniProt Q53GS9 1-565)
chain: T1 sequence

B3: endogenous USP39 (enzyme, UniProt Q53GS9 1-565)
chain: T1 sequence
binding (HA-RBM39 (human)): binds
